Laboratory results: PubChem BioAssay AID1259308 (NCATS, 2017)

- Aim: 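Genes whose loss raises luciferase production in HEK293 cells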 (primary screen)
- Cells: human HEK293 embryonic kidney cells stably expressing firefly luciferase (HEK-CMV-Luc2-Hygro)
- Reagent: single siRNA against human genes, 0.8 pmol siRNA per well
- Time to read-out: 72 h
- Measurement: 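Luciferase light (ONE-Glo) measured on one replicate plate set and viability (CellTiter-Glo) on the other, scaled to a negative control siRNA, with robust z-scores and luciferase per cell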
- Scale: total luciferase, z-score and total luciferase, % of control: higher = more reporter protein produced; luciferase per cell, z-score: higher = more reporter output per viable cell; viable cells, % of control: higher = more viable cells
- Call rule: 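An siRNA counts as active if its total luciferase robust z-score exceeds 3; genes with two or more such siRNAs out of three were retested with fresh siRNAs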
- Meaning of the calls: active = raised luciferase; inactive = no rise
Shown is an unselected part of about 59,000 reagents tested. About 1,510 of all reagents (2.6%) count as active. 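Calls use total luciferase alone and ignore viability, so some active siRNAs may act by altering cell number.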

The first 8 entries as a preview:
gene | PubChem SID | total luciferase, z-score | total luciferase, % of control | luciferase per cell, z-score | viable cells, % of control | Call
ZNF736 | SID160772269 | 0.561 | 93 | 1.25 | 74.8 | inactive
ZNF736 | SID160772270 | 1.36 | 109 | 1.69 | 77.9 | inactive
ZNF736 | SID160772271 | 1.19 | 106 | 1.58 | 77.7 | inactive
CHST12 | SID160743710 | -1.84 | 45.2 | -1.27 | 70.6 | inactive
CHST12 | SID160743711 | -1.85 | 45 | -1.34 | 71.6 | inactive
CHST12 | SID160743712 | -0.199 | 77.9 | -0.272 | 93.5 | inactive
ACTRT3 | SID160752342 | 0.351 | 88.9 | 0.891 | 78.5 | inactive
ACTRT3 | SID160752344 | -0.715 | 67.7 | -0.473 | 85.6 | inactive

Main list, repeating the preview:
gene | PubChem SID | total luciferase, z-score | total luciferase, % of control | luciferase per cell, z-score | viable cells, % of control | Call
ZNF736 | SID160772269 | 0.561 | 93 | 1.25 | 74.8 | inactive
ZNF736 | SID160772270 | 1.36 | 109 | 1.69 | 77.9 | inactive
ZNF736 | SID160772271 | 1.19 | 106 | 1.58 | 77.7 | inactive
CHST12 | SID160743710 | -1.84 | 45.2 | -1.27 | 70.6 | inactive
CHST12 | SID160743711 | -1.85 | 45 | -1.34 | 71.6 | inactive
CHST12 | SID160743712 | -0.199 | 77.9 | -0.272 | 93.5 | inactive
ACTRT3 | SID160752342 | 0.351 | 88.9 | 0.891 | 78.5 | inactive
ACTRT3 | SID160752344 | -0.715 | 67.7 | -0.473 | 85.6 | inactive
ACTRT3 | SID160752345 | -1.04 | 61.2 | -1.51 | 102 | inactive
GLIS1 | SID160758762 | -0.737 | 67.2 | -0.778 | 92.2 | inactive
GLIS1 | SID160758764 | -0.503 | 71.9 | -0.231 | 85.4 | inactive
GLIS1 | SID160758765 | 1.55 | 113 | 0.614 | 107 | inactive
YTHDC2 | SID160748063 | -0.721 | 67.5 | 0.243 | 70.8 | inactive
YTHDC2 | SID160748065 | -0.853 | 64.9 | -0.914 | 92.3 | inactive
YTHDC2 | SID160748066 | -0.358 | 74.8 | -0.602 | 97.9 | inactive
RIPK2 | SID160732096 | -1.43 | 53.4 | -1.59 | 90.6 | inactive
RIPK2 | SID160737200 | -0.0544 | 80.8 | 0.0473 | 89.2 | inactive
RIPK2 | SID160737416 | -0.441 | 73.1 | -0.876 | 103 | inactive
CRISPLD2 | SID160735055 | -1.46 | 52.8 | -1.84 | 95.7 | inactive
CRISPLD2 | SID160751352 | -0.777 | 66.4 | -0.803 | 91.7 | inactive
CRISPLD2 | SID160751353 | 2.9 | 139 | 2.63 | 78 | inactive
BTN2A1 | SID160729984 | 0.191 | 85.7 | 1 | 73.5 | inactive
BTN2A1 | SID160729985 | -1.58 | 50.5 | -0.941 | 72.3 | inactive
BTN2A1 | SID160730507 | 0.139 | 84.7 | 1.07 | 71.4 | inactive
NRSN1 | SID160757888 | 0.475 | 91.3 | -0.134 | 106 | inactive
NRSN1 | SID160757889 | -2.11 | 39.9 | -1.4 | 64.3 | inactive
NRSN1 | SID160757890 | -1.08 | 60.4 | -1.28 | 94.6 | inactive
INSM2 | SID160735108 | 0.175 | 85.4 | -0.0438 | 96.5 | inactive
INSM2 | SID160752590 | 0.56 | 93 | 1.62 | 67.9 | inactive
INSM2 | SID160752591 | -0.00198 | 81.8 | 0.123 | 88.5 | inactive
CRLF1 | SID160721797 | -0.00729 | 81.7 | -0.458 | 103 | inactive
CRLF1 | SID160721798 | -1.99 | 42.3 | -2.82 | 99.2 | inactive
CRLF1 | SID160721799 | 0.0353 | 82.6 | 0.274 | 85.9 | inactive
PRSS50 | SID160739117 | -1.11 | 59.9 | -0.757 | 81.7 | inactive
PRSS50 | SID160739118 | -1.02 | 61.5 | 0.00171 | 68.7 | inactive
PRSS50 | SID160739119 | -0.342 | 75.1 | -0.291 | 90.6 | inactive
H1-6 | SID160774801 | -0.0897 | 80.1 | -0.176 | 93.7 | inactive
H1-6 | SID160774802 | -1.77 | 46.8 | -1.3 | 73.6 | inactive
H1-6 | SID160774803 | 0.905 | 99.9 | 0.453 | 99.1 | inactive
CLIC6 | SID160741568 | -0.57 | 70.6 | -1.04 | 104 | inactive
CLIC6 | SID160741569 | -0.291 | 76.1 | -0.22 | 90.1 | inactive
CLIC6 | SID160741570 | -0.139 | 79.1 | -0.503 | 101 | inactive
NDUFB10 | SID160777885 | 0.287 | 87.6 | 0.218 | 92.4 | inactive
NDUFB10 | SID160777886 | 0.417 | 90.2 | -0.0672 | 103 | inactive
NDUFB10 | SID160777887 | 0.326 | 88.4 | -0.054 | 100 | inactive
PLAU | SID160714430 | 0.766 | 97.1 | 1.21 | 78.9 | inactive
PLAU | SID160714431 | -1.41 | 53.8 | -1.48 | 88.9 | inactive
PLAU | SID160714432 | 0.242 | 86.7 | 0.659 | 81.4 | inactive
VPS26A | SID160722501 | 1.07 | 103 | 1.05 | 87.5 | inactive
VPS26A | SID160722503 | 1.32 | 108 | 1.67 | 78 | inactive
VPS26A | SID160722504 | -0.518 | 71.6 | -0.593 | 93.5 | inactive
SCRT1 | SID160751164 | 0.199 | 85.8 | -0.358 | 105 | inactive
SCRT1 | SID160751166 | -0.18 | 78.3 | 0.44 | 77.9 | inactive
SCRT1 | SID160751167 | 0.158 | 85 | 0.18 | 90.6 | inactive
LAGE3 | SID160719785 | -1.09 | 60.3 | -1.47 | 99.3 | inactive
LAGE3 | SID160719786 | 0.197 | 85.8 | 1.8 | 59.7 | inactive
LAGE3 | SID160719787 | -0.0715 | 80.5 | -0.462 | 102 | inactive
C2 | SID160729634 | 0.677 | 95.3 | 0.259 | 99.5 | inactive
C2 | SID160729645 | 3.64 | 154 | 3.29 | 72.5 | active
C2 | SID160729654 | 0.495 | 91.7 | -0.187 | 108 | inactive
CDHR4 | SID160766091 | -0.213 | 77.7 | 0.0203 | 86.3 | inactive
CDHR4 | SID160766092 | -1.43 | 53.3 | -0.451 | 67.1 | inactive
CDHR4 | SID160766093 | -1.07 | 60.6 | -1.31 | 95.6 | inactive
C1QTNF2 | SID160755085 | -0.0164 | 81.6 | 0.985 | 70.3 | inactive
C1QTNF2 | SID160755086 | 0.967 | 101 | 0.587 | 96.8 | inactive
C1QTNF2 | SID160755087 | -2.09 | 40.2 | -2.78 | 93.5 | inactive
ATG13 | SID160723051 | -0.14 | 79.1 | 0.553 | 76.4 | inactive
ATG13 | SID160723053 | 0.0869 | 83.6 | -0.239 | 99.5 | inactive
ATG13 | SID160723054 | -1.85 | 45.1 | -1.96 | 84.3 | inactive
NAGLU | SID160777761 | 2.06 | 123 | 2.17 | 77.4 | inactive
NAGLU | SID160777762 | 0.284 | 87.5 | -0.0952 | 100 | inactive
NAGLU | SID160777763 | -1.31 | 55.9 | -1.89 | 103 | inactive
NCCRP1 | SID160764643 | -0.425 | 73.4 | 0.731 | 67.7 | inactive
NCCRP1 | SID160764644 | 0.761 | 97 | 0.574 | 93.2 | inactive
NCCRP1 | SID160764646 | 0.127 | 84.4 | 0.326 | 86.6 | inactive
